Changes are numbered by the printed parent chain. Numbers in names are those of the source. No constants are given. Whether binding was seen depends on the method and setting. Some binding calls cover weakened binding; strength is not graded here.
Molecular target: PHFs (tau seeds) from human AD brain homogenate (human) (UniProt P10636)
Assay: immunodepletion of AD brain homogenate with antibody and protein G beads

Amino acid sequences for entries named in this document (tags omitted). A change or cut given only in a name is not applied to a line headed by its entry. Chains listed by the source or under a name are the forms on record and can include a tag or linker.
PHFs (tau seeds) from human AD brain homogenate (P10636, form named): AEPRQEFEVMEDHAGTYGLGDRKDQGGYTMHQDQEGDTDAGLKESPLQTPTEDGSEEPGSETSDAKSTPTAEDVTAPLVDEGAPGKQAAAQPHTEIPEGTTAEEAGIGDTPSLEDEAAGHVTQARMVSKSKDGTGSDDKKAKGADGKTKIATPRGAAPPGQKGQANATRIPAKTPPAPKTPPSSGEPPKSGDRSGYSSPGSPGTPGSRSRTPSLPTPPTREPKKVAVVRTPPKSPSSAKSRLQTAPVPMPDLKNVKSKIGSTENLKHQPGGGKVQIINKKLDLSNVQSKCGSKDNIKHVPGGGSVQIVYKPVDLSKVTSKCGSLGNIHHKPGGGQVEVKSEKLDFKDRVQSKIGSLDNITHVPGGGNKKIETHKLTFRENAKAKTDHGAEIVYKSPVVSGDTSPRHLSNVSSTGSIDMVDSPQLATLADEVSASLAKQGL

B1: CBTAU-28.1 (I50M[VH];Y52W[VH];S103W[VH];Y31W[VL];N99H[VL]) (antibody, V domains shown)
VH: QVQLQQSGAEVKKPGESLKISCEASGYSFTNYWIGWVRQMPGKGLEWMGMIWPGDSDTRYSPPFQGQVTITADRSITTAYLEWSSLKASDTAMYYCARVGRPWKGGWFDPWGQGTLVTVSS
VL: DIQMTQSPDSLAVSLGERATINCESSQTLLWSSNEKNYLAWYQQKPGQPPKLLISWASTPESGVPDRFSGSGSGTSFTLTISSLQAEDVAVYYCQQYYHSPYTFGQGTRLEIK
- binding: binds

B2: CBTAU-28.1 (I50M[VH];Y52W[VH];S103F[VH];Y31W[VL];N99H[VL]) (antibody, V domains shown)
VH: B1 VH with W103F
VL: B1 VL
- binding: binds

From patent publication US20200369754A1
